Results are given in words; binding and its absence hold for the method and conditions named. In cells and extracts the contact can be indirect. Here binding means that the protein was enriched with, or labelled near, the bait; the list need not be complete.
Experiments:
[1] = target: TAP-Bcl-xL, Q07817; assay: affinity purification with mass spectrometry; Tandem Affinity Purification from CHAPS (1%) extracts of total membranes of HeLa cells stably expressing TAP-Bcl-xL: IgG agarose, TEV cleavage, calmodulin resin, EGTA elution; most abundant Coomassie bands cut and identified by LC-MS/MS; TAP-stop cells as control; details: remark: other sources report otherwise
[2] = target: TAP-Bcl-xL (UniProt Q07817); assay: as above

The chains behind the UniProt entries cited, without tags or fusion partners.
UniProt Q07817: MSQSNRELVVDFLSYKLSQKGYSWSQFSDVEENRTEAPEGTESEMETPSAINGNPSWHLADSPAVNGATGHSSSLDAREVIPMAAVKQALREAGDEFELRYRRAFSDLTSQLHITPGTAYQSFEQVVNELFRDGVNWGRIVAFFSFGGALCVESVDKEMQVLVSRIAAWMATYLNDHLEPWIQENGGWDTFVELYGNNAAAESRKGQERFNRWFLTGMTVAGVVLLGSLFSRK

binding [1] | binding [2] | Binder
binds |  | ATP synthase b subunit, P24539 43-256 (protein) PVPPLPEYGGKVRYGLIPEEFFQFLYPKTGVTGPYVLGTGLILYALSKEIYVISAETFTALSVLGVMVYGIKKYGPFVADFADKLNEQKLAQLEEAKQASIQHIQNAIDTEKSQQALVQKRHYLFDVQRNNIAMALEVTYRERLYRVYKEVKNRLDYHISVQNMMRRKEQEHMINWVEKHVVQSISTQQEKETIAKCIADLKLLAKKAQAQPVM
binds |  | ATP synthase gamma chain, P36542-1 26-298 (protein) ATLKDITRRLKSIKNIQKITKSMKMVAAAKYARAERELKPARIYGLGSLALYEKADIKGPEDKKKHLLIGVSSDRGLCGAIHSSIAKQMKSEVATLTAAGKEVMLVGIGDKIRGILYRTHSDQFLVAFKEVGRKPPTFGDASVIALELLNSGYEFDEGSIIFNKFRSVISYKTEEKPIFSLNTVASADSMSIYDDIDADVLQNYQEYNLANIIYYSLKESTTSEQSARMTAMDNASKNASEMIDKLTLTFNRTRQAVITKELIEIISGAAALD
 | binds | CDGSH iron sulfur domain 2 (protein, UniProt Q8N5K1 1-135) MVLESVARIVKVQLPAYLKRLPVPESITGFARLTVSEWLRLLPFLGVLALLGYLAVRPFLPKKKQQKDSLINLKIQKENPKVVNEINIEDLCLTKAAYCRCWRSKTFPACDGSHNKHNELTGDNVGPLILKKKEV
binds |  | ATP synthase OSCP subunit, P48047 24-213 (protein) FAKLVRPPVQVYGIEGRYATALYSAASKQNKLEQVEKELLRVAQILKEPKVAASVLNPYVKRSIKVKSLNDITAKERFSPLTTNLINLLAENGRLSNTQGVVSAFSTMMSVHRGEVPCTVTSASPLEEATLSELKTVLKSFLSQGQVLKLEAKTDPSILGGMIVRIGEKYVDMSVKTKIQKLGRAMREIV

From article PMC3006391
